From PMC11844276 come the findings set out here.

By UniProt entry, the sequences of proteins in these tests, tags left out.
UniProt Q8K019: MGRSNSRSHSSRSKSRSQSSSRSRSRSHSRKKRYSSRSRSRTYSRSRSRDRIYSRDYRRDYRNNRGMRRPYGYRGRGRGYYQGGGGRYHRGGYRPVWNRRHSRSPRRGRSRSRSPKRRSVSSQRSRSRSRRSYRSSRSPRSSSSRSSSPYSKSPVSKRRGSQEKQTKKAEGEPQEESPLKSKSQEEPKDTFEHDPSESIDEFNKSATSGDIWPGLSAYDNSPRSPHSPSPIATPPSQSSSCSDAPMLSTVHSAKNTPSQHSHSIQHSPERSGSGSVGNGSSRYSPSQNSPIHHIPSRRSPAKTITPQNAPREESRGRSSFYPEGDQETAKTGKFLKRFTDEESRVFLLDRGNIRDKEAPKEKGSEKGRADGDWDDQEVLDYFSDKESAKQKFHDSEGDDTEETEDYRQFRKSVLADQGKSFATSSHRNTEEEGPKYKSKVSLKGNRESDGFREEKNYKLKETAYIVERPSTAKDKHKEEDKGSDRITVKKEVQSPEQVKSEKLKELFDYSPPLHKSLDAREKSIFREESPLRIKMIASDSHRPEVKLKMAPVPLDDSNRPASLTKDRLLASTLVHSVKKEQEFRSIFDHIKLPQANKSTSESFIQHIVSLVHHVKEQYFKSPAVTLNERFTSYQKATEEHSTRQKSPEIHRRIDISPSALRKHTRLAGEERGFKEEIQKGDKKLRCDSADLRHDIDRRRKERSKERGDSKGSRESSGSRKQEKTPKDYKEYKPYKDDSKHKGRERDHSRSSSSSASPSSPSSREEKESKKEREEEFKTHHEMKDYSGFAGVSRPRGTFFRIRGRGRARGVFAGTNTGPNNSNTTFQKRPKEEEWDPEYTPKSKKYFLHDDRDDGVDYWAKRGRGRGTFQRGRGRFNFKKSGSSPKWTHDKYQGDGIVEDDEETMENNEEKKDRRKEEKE
UniProt Q9JHS3: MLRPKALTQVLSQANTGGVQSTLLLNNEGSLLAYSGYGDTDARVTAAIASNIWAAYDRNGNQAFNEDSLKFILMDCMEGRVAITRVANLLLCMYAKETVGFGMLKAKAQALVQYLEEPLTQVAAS

These are yes or no findings as the source states them, for the method shown. In cells and extracts the contact can be indirect. These calls come from enrichment with a bait or labelling near it, and not all partners need be listed.

This experiment concerns the target B-cell lymphoma-2-associated transcription factor 1 (BCLAF1), Flag-tagged (UniProt Q8K019). As to the kind of experiment: affinity purification with mass spectrometry; immunoprecipitation of BCLAF1 from NP-40 lysate of mouse primary chondrocytes on protein A/G magnetic beads with antibody, overnight at 4 °C; immunoprecipitates subjected to protein mass spectrometry.

With “Ragulator complex protein LAMTOR2 (late endosomal/lysosomal adaptor and MAPK and MTOR activator 2), endogenous (from UniProt Q9JHS3 1-125)”, the binding result is given as “binds”.
